The target in test [1] is T1, native CNTN4 (CNTN4 expression plasmid coding for the native Cntn4 protein) (not stated (rat or mouse cDNA cloned)) (UniProt Q69Z26).
T1 sequence: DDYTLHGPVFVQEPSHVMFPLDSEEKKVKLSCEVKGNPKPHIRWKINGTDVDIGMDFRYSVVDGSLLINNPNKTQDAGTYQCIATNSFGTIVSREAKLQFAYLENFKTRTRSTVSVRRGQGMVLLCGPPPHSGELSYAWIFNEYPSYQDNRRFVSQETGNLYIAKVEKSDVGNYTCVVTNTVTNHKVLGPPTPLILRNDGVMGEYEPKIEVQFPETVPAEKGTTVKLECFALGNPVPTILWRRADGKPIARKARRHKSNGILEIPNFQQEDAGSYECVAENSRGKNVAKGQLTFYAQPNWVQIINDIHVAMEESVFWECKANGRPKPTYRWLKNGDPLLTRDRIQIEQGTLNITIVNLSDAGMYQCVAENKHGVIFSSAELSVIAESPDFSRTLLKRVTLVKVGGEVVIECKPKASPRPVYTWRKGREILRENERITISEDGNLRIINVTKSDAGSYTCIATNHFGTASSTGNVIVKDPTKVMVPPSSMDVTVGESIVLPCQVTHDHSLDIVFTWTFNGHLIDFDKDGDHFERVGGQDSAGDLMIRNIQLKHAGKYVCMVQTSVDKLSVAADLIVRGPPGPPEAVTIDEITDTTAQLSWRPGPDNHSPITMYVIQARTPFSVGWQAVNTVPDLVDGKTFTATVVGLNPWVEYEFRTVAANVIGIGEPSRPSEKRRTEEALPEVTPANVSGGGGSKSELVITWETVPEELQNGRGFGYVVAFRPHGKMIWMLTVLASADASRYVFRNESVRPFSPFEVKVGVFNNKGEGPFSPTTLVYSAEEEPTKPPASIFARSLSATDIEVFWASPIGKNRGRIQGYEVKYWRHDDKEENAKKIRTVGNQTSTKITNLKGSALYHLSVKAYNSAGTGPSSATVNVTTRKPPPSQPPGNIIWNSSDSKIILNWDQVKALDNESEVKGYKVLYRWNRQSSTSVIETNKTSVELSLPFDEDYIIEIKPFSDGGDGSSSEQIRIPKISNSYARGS
Put plainly: co-IP; HEK293 cells transfected with the native CNTN4 plasmid or an empty vector; IP with an anti-CNTN4 antibody (normal IgG as control), Western blot for CNTN4 and APP. In general terms: In western blotting, separated proteins are transferred to a membrane and probed.

In test [2] the target is T2, FLAG-mCntn4 (full-length pcDNA3.1-FLAG-mCntn4), on HEK293 cells (mouse (mCntn4)) (UniProt Q69Z26).
T2 sequence: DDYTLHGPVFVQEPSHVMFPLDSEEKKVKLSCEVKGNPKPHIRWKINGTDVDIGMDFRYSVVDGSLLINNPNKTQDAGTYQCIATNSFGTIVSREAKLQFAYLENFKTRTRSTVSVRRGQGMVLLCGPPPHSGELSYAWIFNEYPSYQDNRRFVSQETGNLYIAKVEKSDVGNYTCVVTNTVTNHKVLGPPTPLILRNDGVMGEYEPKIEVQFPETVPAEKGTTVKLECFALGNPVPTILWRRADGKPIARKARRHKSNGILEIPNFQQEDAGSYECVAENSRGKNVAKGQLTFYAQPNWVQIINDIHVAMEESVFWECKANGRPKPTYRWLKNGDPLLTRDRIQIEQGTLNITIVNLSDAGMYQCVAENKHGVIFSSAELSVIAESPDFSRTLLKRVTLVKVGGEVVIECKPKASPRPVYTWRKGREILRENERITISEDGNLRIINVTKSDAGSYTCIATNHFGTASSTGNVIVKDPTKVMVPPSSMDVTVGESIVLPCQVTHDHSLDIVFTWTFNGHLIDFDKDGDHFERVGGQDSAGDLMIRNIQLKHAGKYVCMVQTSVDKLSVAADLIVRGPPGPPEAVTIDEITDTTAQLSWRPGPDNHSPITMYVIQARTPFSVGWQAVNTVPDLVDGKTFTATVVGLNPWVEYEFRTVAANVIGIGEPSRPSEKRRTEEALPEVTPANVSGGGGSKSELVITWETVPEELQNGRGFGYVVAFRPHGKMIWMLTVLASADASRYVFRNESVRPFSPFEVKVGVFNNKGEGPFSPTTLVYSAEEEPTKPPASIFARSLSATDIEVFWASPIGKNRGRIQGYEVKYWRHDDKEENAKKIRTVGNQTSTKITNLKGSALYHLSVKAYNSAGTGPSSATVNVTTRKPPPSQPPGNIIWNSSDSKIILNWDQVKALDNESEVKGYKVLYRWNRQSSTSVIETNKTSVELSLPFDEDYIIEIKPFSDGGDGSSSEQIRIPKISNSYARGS
Put plainly: cell adhesion (aggregation) assay; two populations of transfected HEK293 cells (with EGFP or DsRed) mixed 1:1 in suspension medium (10% HIFCS, 50 mM Hepes-NaOH pH 7.4, 10 mM CaCl2, 10 mM MgCl2), room temperature, gentle agitation, 90 min; aggregation index from fluorescence images.

No constants are given. Whether binding was seen depends on the method and setting. For part of these data: In cells and extracts the contact can be indirect. Some entries that bind do so weakly or less than the wild type. For part of these data: Tags and fused reporters may be left off the sequences shown.

Turning to “amyloid-beta precursor protein (endogenous in HEK293 cells) (from UniProt P05067 18-770)”, the binding entry in test [1] is “binds”.

On to “huAPP695 (pSFV-huAPP695), on HEK293 cells (from UniProt P05067-4 18-695)”, for which the binding result in test [2] is “binds”.

B1: FLAG-mCntn4 (full-length pcDNA3.1-FLAG-mCntn4), on HEK293 cells (protein, UniProt Q69Z26 19-1000)
chain: DDYTLHGPVFVQEPSHVMFPLDSEEKKVKLSCEVKGNPKPHIRWKINGTDVDIGMDFRYSVVDGSLLINNPNKTQDAGTYQCIATNSFGTIVSREAKLQFAYLENFKTRTRSTVSVRRGQGMVLLCGPPPHSGELSYAWIFNEYPSYQDNRRFVSQETGNLYIAKVEKSDVGNYTCVVTNTVTNHKVLGPPTPLILRNDGVMGEYEPKIEVQFPETVPAEKGTTVKLECFALGNPVPTILWRRADGKPIARKARRHKSNGILEIPNFQQEDAGSYECVAENSRGKNVAKGQLTFYAQPNWVQIINDIHVAMEESVFWECKANGRPKPTYRWLKNGDPLLTRDRIQIEQGTLNITIVNLSDAGMYQCVAENKHGVIFSSAELSVIAESPDFSRTLLKRVTLVKVGGEVVIECKPKASPRPVYTWRKGREILRENERITISEDGNLRIINVTKSDAGSYTCIATNHFGTASSTGNVIVKDPTKVMVPPSSMDVTVGESIVLPCQVTHDHSLDIVFTWTFNGHLIDFDKDGDHFERVGGQDSAGDLMIRNIQLKHAGKYVCMVQTSVDKLSVAADLIVRGPPGPPEAVTIDEITDTTAQLSWRPGPDNHSPITMYVIQARTPFSVGWQAVNTVPDLVDGKTFTATVVGLNPWVEYEFRTVAANVIGIGEPSRPSEKRRTEEALPEVTPANVSGGGGSKSELVITWETVPEELQNGRGFGYVVAFRPHGKMIWMLTVLASADASRYVFRNESVRPFSPFEVKVGVFNNKGEGPFSPTTLVYSAEEEPTKPPASIFARSLSATDIEVFWASPIGKNRGRIQGYEVKYWRHDDKEENAKKIRTVGNQTSTKITNLKGSALYHLSVKAYNSAGTGPSSATVNVTTRKPPPSQPPGNIIWNSSDSKIILNWDQVKALDNESEVKGYKVLYRWNRQSSTSVIETNKTSVELSLPFDEDYIIEIKPFSDGGDGSSSEQIRIPKISNSYARGS
As for B1, in test [2], the binding result is on record as “binds”.

For the origin of these results see paper PMC11293442.
